Results are given in words; binding and its absence hold for the method and conditions named. For some assays here: Binding seen in cells or lysates may run through a third protein. Some binding calls cover weakened binding; strength is not graded here. Sequences can lack the tags named with a protein.
Key:
FLAG-Rsph3b (mouse) = biological target: T1, FLAG-Rsph3b (mouse) (UniProt Q9DA80); experiment: co-IP; FLAG-Rsph3b co-transfected with GFP-AK8 or GFP in HEK293T for 48 h; anti-FLAG beads, 3 h at 4 °C; low-salt buffer (20 mM Tris-HCl pH 7.5, 100 mM KCl, 0.1% NP-40); eluted with FLAG peptide; blots with anti-GFP and anti-FLAG
T1 sequence: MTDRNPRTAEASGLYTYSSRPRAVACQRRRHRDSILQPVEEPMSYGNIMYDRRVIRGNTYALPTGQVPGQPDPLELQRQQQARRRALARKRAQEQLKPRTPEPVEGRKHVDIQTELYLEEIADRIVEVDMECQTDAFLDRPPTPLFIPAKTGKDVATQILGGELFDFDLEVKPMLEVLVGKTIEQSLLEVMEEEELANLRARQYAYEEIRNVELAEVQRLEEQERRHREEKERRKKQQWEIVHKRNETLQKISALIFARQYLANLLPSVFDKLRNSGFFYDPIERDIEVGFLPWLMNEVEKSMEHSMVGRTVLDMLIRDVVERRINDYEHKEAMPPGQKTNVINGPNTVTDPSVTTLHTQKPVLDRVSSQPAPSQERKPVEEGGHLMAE

Rsph4a = biological target: T2, Rsph4a (mouse, UniProt Q8BYM7 1-716); experiment: cryo-EM structure; RS head-neck complex co-expressed in HEK293F, purified by Strep-Tactin then anti-FLAG beads, cross-linked by GraFix (0-0.1% glutaraldehyde, 10-40% glycerol, 4 °C); monomer map 3.28 Å, dimer map 3.57 Å; both purified
T2 construct: Rsph4a (radial spoke head protein 4 homolog A), mouse, NM_001162957; Two copies stand in each RS head
T2 sequence: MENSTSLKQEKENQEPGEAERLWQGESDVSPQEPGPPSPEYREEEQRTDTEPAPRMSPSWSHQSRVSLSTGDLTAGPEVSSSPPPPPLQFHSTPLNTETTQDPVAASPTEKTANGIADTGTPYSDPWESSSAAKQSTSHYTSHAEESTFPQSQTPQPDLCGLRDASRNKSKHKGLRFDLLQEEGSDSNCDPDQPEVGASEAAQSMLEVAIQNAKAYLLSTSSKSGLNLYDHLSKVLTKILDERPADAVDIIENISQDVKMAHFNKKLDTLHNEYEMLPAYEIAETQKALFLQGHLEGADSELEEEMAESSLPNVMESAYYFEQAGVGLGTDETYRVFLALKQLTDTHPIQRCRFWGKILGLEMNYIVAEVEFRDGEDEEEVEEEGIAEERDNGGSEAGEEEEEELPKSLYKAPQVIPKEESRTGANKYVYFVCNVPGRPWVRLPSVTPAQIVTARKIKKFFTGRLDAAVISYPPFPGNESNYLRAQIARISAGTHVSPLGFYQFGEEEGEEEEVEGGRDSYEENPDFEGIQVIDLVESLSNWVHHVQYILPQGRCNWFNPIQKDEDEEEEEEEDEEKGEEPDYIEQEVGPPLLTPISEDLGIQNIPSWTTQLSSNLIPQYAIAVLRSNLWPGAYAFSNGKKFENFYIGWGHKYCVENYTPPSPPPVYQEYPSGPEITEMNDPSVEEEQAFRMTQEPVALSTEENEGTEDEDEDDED

B1: GFP-AK8 (protein, UniProt Q32M07 1-479)
chain: MDATTAPHRIPPEMPQYGEDYYIFEMMQNMLEQLLIHQPEDPISFMITHLRRNNDNVPKVVILGPPASGKTTIAMWLCKHLNSNLITKESLLEREFSRLSVEAKSYYQVYKKIPNSILVSLVQERLNEDDCLRKGWILDGIPERREQALMIQTLGLAPKHVIVLNAPDTVLIERNVGKRIDPVTGEIYHTTFDWPPEPEIQNRLRQPEGISEIETAKKLLEYHRHIIRILPSYPKILKTISSDQPCVDVFYQALTYVQSGHRCNAPFTPKVLLCGPLGSGKRLQATLLAQKYGLVNISCGQLLKEAVAAKSSFGELIQPFFEKRMTVPDSIITKVLADRMEQQDCIQKGWVLHGFPRDLDQARMLNSMGYNPNRVFFLSVPLDSILERLTLRRTDPVTGERFHLMYKPPPTIEVQVRLLQNPKDSEEYIKLQTDLFYRNSGDLEQYYDRAIIVNGDQDPYTVFEYIESGIINPLPRKVT
FLAG-Rsph3b (mouse)
  binding: binds

B2: Strep-Tag II-tagged Rsph1 (protein, UniProt Q8VIG3 1-301)
chain: MSDLGSEELEEEGENDLGEYEGERNEVGERHGHGKARLPNGDTYEGSYEFGKRHGQGTYKFKNGARYTGDYVKNKKHGQGTFIYPDGSRYEGEWADDQRHGQGVYYYVNNDTYTGEWFNHQRHGQGTYLYAETGSKYVGTWVHGQQEGAAELIHLNHRYQGKFMNKNPVGPGKYVFDIGCEQHGEYRLTDTERGEEEEEEETLVNIVPKWKALNITELALWTPTLSEEQPPPEGQGQEEPQGLTGVGDPSEDIQAEGFEGELEPRGADEDVDTFRQESQENSYDIDQGNLNFDEEPSDLQD
Rsph4a
  binding: binds
